The nature of the assay: IkB Signaling. As to conditions: ABC-DLBCL IkBa-CBG/CBR dual luciferase ratio (green luciferase fused to IkBa over red control in OCI-Ly3 lymphoma cells), 4 h. The method in brief:
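Curves were fitted separately to fusion (green), unfused (red) and ratio luminescence, then classed by r2, magnitude and activity. Cells: OCI-Ly3, 4 h compound plus doxycycline at 37C; 10 uM MG-132 defined full response.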

Where [1] appears, read: measured here: control luc red channel unless noted.
[2] abbreviates: measured here: IkB-luc green channel.
Setting [3] is: measured here: control luc red channel.

For 40 compounds, AC50 results are on record in PubChem BioAssay AID445 (National Center for Advancing Translational Sciences (NCATS), 2006).

One may read the AC50 as the concentration at which the activity in the assay is half-maximal.

The list shows a part of the results. Further columns of the screen follow, without active or inactive calls. The list favours compounds with an active or inconclusive main result. Potencies come from curve fits of mixed quality, noted in brackets.

As to `O=C(c1cc2c(s1)-c1ccccc1OC2)N1CCN(c2ccc(F)cc2)CC1`, under setting [1], the AC50 was 10 µM [falling, partial curve].

`COc1ccc(C(=O)CN2CCN(c3ccc(F)cc3)CC2)cc1OC`: the concentration at half-maximal activity (AC50) under setting [1] is 25.1 µM [falling, partial curve].

As to `Cc1ccccc1Nc1nc(N)nc(COC(=O)CCS(=O)(=O)c2ccccc2)n1`, under setting [1], the AC50 was 12.6 µM [falling, partial curve].

Regarding `COc1ccc(NC(=O)Cn2c(=O)n(Cc3ccco3)c(=O)c3oc4ccccc4c32)cc1Cl`, the AC50 under setting [1] is 6.31 µM [falling, partial curve].

As to `CC1CCc2nc(NC(=O)CN3CCN(Cc4ccc5c(c4)OCO5)CC3)sc2C1` (configuration not stated), the AC50 under setting [1] was 12.6 µM [falling, partial curve].

With `Cc1ccccc1CNCc1c(C(=O)O)c(C)n(Cc2ccc(F)cc2Cl)c1C`, the AC50 under setting [1] is 10 µM [falling, partial curve].

`COc1ccc(-n2ncc3c2ncn2nc(Cc4ccccc4)nc32)cc1`: under setting [1], the half-maximal activity concentration (AC50) was 15.8 µM [falling, partial curve].

Regarding `CC(=O)Nc1ccc(C(=O)Nc2ccc3c(c2)N(C2CCCC2)C(=O)c2ccccc2S3)cc1`, the AC50 under setting [1] was 3.16 µM [falling, partial curve].

On to `Clc1ccccc1CN1CCc2nc(N3CCN(c4ncccn4)CC3)ncc2C1`, for which the AC50 under setting [1] is 25.1 µM [falling, partial curve].

Regarding `O=C(Nc1ccc(F)cc1)c1cc2cc3ccc(Cl)cc3nc2o1`, under setting [1], the AC50 was 2.51 µM [rising, full curve].

Take `Cc1oc(-c2ccccc2Cl)nc1CS(=O)(=O)CC(=O)NC(C)c1ccccc1` (configuration not stated): the AC50 under setting [1] was 15.8 µM [falling, partial curve].

Regarding `CCOc1ccccc1CNC(=O)CSc1nnc(C)c2c(C)n(-c3ccccc3)nc12`, the AC50 under setting [1] is 7.94 µM [falling, partial curve].

For `Cc1ccc(S(=O)(=O)c2c(N)n(CC3CCOC3)c3nc4ccccc4nc23)cc1` (configuration not stated), the AC50 under setting [1] was 20 µM [falling, partial curve].

For `Cc1ccc(CN(C(=O)COc2ccc([N+](=O)[O-])cc2)c2ccccn2)o1`, under setting [1], the AC50 is 7.94 µM [falling, full curve, poor fit].

As to `Cc1ccc(Nc2ncc(C(=O)Nc3ccc(F)cc3F)c3ccccc23)cc1Cl`, under setting [1], the AC50 was 3.16 µM [falling, full curve, poor fit].

Take `COc1ccc(CNC(=O)c2nn(C)c3c2CS(=O)(=O)c2ccccc2-3)cc1`: the AC50 under setting [1] is 25.1 µM [falling, single point].

As for `O=C(COc1ccccc1)Nc1nnc(SCc2cc(=O)n3cc(Cl)ccc3n2)s1`, under setting [1], the AC50 is 3.98 µM [falling, partial curve].

Take `COc1ccc(CCNC(=O)CCS(=O)(=O)c2cc3c(cc2Cl)NC(=O)CO3)cc1OC`: the AC50 under setting [1] is 0.0794 µM [rising, full curve].

On to `CCc1nnc(SCC(=O)Nc2cccc(C(F)(F)F)c2)c2cc3oc(C)cc3n12`, for which the AC50 under setting [1] is 12.6 µM [falling, partial curve].

In the case of `CCOC(=O)Cc1c(C)nc2c(-c3ccc(Cl)cc3)c(C(F)(F)F)nn2c1C`, the AC50 under setting [1] is 10 µM [falling, partial curve].

As for `CCCc1nn2cc(-c3ccc(C)c(C)c3)nc2s1`, under setting [1], the AC50 was 15.8 µM [falling, partial curve].

`COc1ccc(/C=C/C(=O)Nc2ccc3nc4c(c(Nc5ccc(OC)c(OC)c5)c3c2)CCCC4)cc1`: the AC50 under setting [1] was 10 µM [falling, partial curve].

Consider `COc1ccc(-c2noc(CSc3nnc(Cc4ccccc4)n3-c3cccc(C)c3)n2)cc1`, for which, under setting [1], the AC50 was 25.1 µM [falling, partial curve].

In the case of `Cc1ccc(NC(=O)c2oc3ccccc3c2NC(=O)C23CC4CC(CC(C4)C2)C3)cc1`, the AC50 under setting [1] is 39.8 µM [falling, single point].

Consider `Cc1ccc(C(=O)NCc2ccccc2)cc1NC(=O)c1nsc2ccccc12`, for which, under setting [1], the AC50 is 7.94 µM [falling, partial curve].

Regarding `C=C(C)COc1ccc(-c2n[nH]c(C)c2-c2ccccc2)c(O)c1`, the AC50 under setting [1] was 31.6 µM [falling, single point].

Take `Cn1cc(C(=O)NCCc2ccccc2)c(=O)c2cc(S(=O)(=O)N3CCCCC3)ccc21`: the AC50 under setting [1] was 7.94 µM [falling, partial curve].

In the case of `CC(C)(C)OC(=O)N1CCC(c2c(C(=O)N3CCN(Cc4ccccc4)CC3)cnn2-c2ccc(Cl)cc2)CC1`, the AC50 under setting [1] is 39.8 µM [falling, single point].

For the compound `c1ccc2c(c1)CCN(c1ncnc3nc[nH]c13)C2`, the AC50 under setting [2] is 2.51 µM [rising, full curve] and the AC50 under setting [3] was 1.26 µM [rising, full curve].

Consider `CCc1ccc(OCC(=O)Nc2cc(-c3nc4cc(C)ccc4o3)ccc2C)cc1`, for which, under setting [1], the AC50 is 0.794 µM [falling, full curve].

In the case of `O=S(=O)(c1cccc2c(Cl)cccc12)N1CCCNCC1`, the AC50 under setting [1] is 39.8 µM [falling, partial curve, poor fit].

Regarding `COc1ccc(S(=O)(=O)N2CCCC(C(=O)Nc3cccc(C(C)=O)c3)C2)cc1` (configuration not stated), the AC50 under setting [1] is 15.8 µM [falling, partial curve].

Take `Cc1cc(Nc2ccccc2Br)n2nc(C)nc2n1`: under setting [1], the AC50 is 15.8 µM [rising, partial curve].

As for `O=C(NCCN1CCOCC1)c1cc(-c2cccs2)on1`, the AC50 is 25.1 µM [rising, partial curve] under setting [2] and 20 µM [rising, partial curve] under setting [3].

With `CCC1CCCCN1C(=O)CCS(=O)(=O)c1cc2c(cc1C)NC(=O)CO2` (configuration not stated), under setting [1], the AC50 is 12.6 µM [falling, partial curve].

Regarding `Cc1ccc(Nc2c(-c3ccc(C)o3)nc3cccc(C)n23)cc1`, the AC50 under setting [1] was 25.1 µM [falling, partial curve].

Consider `CCOc1ccccc1N1CCN(S(=O)(=O)c2ccc(Cl)s2)CC1`, for which the AC50 under setting [1] was 12.6 µM [falling, partial curve].

Regarding `Cc1cc(C)cc(-n2c(SCC(=O)N3CCCCCC3)nc3c([nH]c4ccccc43)c2=O)c1`, the AC50 under setting [1] is 1.58 µM [rising, full curve, poor fit].

With `CCS(=O)(=O)c1ncc(Cl)c(C(=O)NCc2ccccc2)n1`, the AC50 under setting [1] was 6.31 µM [falling, full curve].

As for `COc1ccc(-c2cc(=O)oc3c4c(ccc23)OCN(Cc2ccccc2)C4)cc1`, the AC50 under setting [1] is 39.8 µM [falling, partial curve].
